Results: paper PMC7784988
Results are given in words; binding and its absence hold for the method and conditions named. For some assays here: Binding seen in cells or lysates may run through a third protein. Some results given as binding are weak or reduced against the parent protein; the word gives no strength. Where a sequence is shown, tags or fusion partners need not be part of it.

T1: GST-tagged recombinant mouse TNC (1–700aa) (mouse) (UniProt Q80YX1)
T1 sequence: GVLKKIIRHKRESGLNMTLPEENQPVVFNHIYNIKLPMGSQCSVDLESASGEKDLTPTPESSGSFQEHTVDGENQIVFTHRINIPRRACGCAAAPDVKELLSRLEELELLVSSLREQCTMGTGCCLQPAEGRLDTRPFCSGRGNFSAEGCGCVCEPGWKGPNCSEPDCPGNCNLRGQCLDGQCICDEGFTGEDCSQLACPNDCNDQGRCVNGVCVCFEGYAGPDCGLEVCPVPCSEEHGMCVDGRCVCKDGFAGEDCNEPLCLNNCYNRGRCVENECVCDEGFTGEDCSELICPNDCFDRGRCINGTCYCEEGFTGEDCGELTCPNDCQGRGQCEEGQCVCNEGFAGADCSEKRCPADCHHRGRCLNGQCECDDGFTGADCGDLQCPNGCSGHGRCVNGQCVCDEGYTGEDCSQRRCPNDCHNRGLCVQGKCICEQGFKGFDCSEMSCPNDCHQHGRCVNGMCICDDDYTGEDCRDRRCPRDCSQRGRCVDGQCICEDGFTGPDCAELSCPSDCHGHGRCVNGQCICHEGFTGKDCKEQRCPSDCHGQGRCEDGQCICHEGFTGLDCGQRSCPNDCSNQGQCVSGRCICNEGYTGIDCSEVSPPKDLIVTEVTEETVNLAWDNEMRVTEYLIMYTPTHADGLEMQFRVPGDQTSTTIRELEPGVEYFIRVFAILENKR

B1: GST-tagged recombinant mouse TNC (1–700aa) (domain or fragment, UniProt Q80YX1 23-700)
chain: T1 sequence

How the values were obtained:
[1] = biological target: T1, GST-tagged recombinant mouse TNC (1–700aa) (mouse); assay: pull-down; 500 ng/mL GST-tagged TNC (1-700aa) added to the culture medium of MuSCs for 4 h; cells washed and lysed (1% Triton X-100, 150 mM NaCl, 20 mM Tris/HCl pH 7.4, 5% glycerol); glutathione Sepharose 4B beads at 4 °C overnight; immunoblot with anti-EGFR; only the target purified
[2] = biological target: T1, GST-tagged recombinant mouse TNC (1–700aa) (mouse); assay: SEC; Superose 6 Increase 10/300 GL in PBS/Az, 0.3 mL/min, HMW calibration kit as mass standards; proteins eluted from glutathione beads with 30 mM GSH; both purified

| binding [1] | binding [2] | Molecule |
| --- | --- | --- |
| binds |  | EGF receptor (EGFR) (from UniProt Q01279 25-1210) |
|  | binds | B1 |
